Consider one substance from patent publication US20050089938A1, “Use of peptide fragments of the calcium channel a-1 subunit, optionally comprising mutations, for screening molecules of therapeutic interest” (priority 2001, published 2005).

The chains behind the UniProt entries cited, without tags or fusion partners. Where a name states a change or a piece, a line headed by the entry shows the natural chain unless it says otherwise.
UniProt P27884: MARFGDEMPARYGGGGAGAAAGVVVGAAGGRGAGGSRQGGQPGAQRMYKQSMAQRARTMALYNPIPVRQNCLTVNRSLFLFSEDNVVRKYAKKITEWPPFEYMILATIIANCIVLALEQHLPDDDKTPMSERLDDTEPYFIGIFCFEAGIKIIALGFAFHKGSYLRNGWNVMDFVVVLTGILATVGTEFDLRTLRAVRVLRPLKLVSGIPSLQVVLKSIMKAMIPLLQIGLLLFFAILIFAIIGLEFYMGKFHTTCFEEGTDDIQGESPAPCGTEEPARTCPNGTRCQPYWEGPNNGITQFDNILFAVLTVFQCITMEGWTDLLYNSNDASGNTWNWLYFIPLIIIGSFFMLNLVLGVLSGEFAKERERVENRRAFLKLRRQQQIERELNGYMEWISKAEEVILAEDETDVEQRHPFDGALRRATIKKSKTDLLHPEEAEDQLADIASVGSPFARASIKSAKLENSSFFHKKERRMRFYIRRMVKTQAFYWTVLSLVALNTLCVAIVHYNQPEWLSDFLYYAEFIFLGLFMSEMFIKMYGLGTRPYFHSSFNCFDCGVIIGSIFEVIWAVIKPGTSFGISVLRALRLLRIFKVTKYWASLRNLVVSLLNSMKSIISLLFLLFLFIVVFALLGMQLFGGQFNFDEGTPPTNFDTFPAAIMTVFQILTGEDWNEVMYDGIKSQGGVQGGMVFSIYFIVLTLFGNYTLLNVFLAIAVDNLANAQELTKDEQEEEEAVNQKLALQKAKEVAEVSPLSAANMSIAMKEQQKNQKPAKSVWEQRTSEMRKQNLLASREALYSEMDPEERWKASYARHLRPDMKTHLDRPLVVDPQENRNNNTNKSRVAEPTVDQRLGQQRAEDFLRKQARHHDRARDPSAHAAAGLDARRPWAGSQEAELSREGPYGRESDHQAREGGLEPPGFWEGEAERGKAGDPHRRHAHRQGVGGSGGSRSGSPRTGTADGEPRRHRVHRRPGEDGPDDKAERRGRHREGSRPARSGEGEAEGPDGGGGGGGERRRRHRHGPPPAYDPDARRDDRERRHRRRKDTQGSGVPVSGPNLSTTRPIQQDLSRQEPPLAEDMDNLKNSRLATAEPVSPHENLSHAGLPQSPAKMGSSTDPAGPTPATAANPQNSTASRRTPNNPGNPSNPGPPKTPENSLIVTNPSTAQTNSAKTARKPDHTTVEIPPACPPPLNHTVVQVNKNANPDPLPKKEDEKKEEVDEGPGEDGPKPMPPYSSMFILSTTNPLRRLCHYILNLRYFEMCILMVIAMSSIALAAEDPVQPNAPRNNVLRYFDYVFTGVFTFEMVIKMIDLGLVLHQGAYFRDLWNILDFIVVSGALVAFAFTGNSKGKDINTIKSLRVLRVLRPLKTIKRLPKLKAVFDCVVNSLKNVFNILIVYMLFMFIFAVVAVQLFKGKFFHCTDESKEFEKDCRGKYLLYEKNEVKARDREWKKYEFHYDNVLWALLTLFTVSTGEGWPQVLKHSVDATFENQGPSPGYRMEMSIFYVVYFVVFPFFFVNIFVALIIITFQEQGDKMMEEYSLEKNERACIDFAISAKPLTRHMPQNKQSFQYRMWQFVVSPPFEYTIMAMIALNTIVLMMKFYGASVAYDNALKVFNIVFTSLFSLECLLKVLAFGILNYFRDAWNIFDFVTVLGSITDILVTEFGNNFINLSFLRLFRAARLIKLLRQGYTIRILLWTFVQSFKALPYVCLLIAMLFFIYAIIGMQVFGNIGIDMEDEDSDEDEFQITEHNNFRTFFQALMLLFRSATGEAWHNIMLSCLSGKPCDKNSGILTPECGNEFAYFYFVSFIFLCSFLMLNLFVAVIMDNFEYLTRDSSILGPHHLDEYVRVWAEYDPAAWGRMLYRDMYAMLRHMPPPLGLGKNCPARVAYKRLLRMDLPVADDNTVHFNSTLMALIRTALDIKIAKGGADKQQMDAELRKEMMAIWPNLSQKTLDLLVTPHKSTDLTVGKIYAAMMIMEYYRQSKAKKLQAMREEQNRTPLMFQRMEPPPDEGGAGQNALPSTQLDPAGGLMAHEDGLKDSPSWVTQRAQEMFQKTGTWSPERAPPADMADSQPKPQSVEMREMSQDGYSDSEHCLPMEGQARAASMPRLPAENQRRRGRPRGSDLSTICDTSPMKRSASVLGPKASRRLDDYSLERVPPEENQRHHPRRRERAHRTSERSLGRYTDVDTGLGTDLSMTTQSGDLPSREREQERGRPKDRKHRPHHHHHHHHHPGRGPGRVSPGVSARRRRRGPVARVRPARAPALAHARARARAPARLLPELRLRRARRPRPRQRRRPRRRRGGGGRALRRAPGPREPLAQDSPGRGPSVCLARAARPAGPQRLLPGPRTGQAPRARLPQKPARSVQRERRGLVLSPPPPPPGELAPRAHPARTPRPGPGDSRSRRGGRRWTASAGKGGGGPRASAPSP

The target of the experiment is GST-III-IV fusion protein (III-IV loop of Cav2.1 expressed and purified as a Glutathione-S-Transferase fusion protein) (human or rabbit) (UniProt O00555). Description: binding of 35S-methionine-labelled in vitro translated I-II loop to GST-III-IV fusion protein (FIG. 2).

Results are given in words; binding and its absence hold for the method and conditions named. Some entries that bind do so weakly or less than the wild type.

As to “I-II loop of the Cav2.1 sub-unit of the calcium channels of rabbit neuronal cells, translated in vitro and labelled with 35S-methionine (from UniProt P27884 360-487)”, the binding entry is given as “binds”.
